{
  "sequences": {"note": "Sequences of proteins named here, by UniProt entry; tags and fusion partners are left off. Residues count along the entry.", "UniProt P36381": "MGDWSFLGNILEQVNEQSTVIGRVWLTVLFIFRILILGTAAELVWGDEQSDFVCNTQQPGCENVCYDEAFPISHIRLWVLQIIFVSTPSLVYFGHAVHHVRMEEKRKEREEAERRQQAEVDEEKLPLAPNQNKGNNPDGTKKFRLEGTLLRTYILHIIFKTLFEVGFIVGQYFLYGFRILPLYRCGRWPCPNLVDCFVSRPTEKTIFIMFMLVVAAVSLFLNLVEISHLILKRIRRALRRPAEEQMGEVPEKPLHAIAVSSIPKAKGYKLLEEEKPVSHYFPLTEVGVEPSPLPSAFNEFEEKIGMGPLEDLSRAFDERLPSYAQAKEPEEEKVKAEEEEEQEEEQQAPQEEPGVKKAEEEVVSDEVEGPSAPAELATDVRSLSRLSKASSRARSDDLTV", "UniProt P08641, residues 161-887": "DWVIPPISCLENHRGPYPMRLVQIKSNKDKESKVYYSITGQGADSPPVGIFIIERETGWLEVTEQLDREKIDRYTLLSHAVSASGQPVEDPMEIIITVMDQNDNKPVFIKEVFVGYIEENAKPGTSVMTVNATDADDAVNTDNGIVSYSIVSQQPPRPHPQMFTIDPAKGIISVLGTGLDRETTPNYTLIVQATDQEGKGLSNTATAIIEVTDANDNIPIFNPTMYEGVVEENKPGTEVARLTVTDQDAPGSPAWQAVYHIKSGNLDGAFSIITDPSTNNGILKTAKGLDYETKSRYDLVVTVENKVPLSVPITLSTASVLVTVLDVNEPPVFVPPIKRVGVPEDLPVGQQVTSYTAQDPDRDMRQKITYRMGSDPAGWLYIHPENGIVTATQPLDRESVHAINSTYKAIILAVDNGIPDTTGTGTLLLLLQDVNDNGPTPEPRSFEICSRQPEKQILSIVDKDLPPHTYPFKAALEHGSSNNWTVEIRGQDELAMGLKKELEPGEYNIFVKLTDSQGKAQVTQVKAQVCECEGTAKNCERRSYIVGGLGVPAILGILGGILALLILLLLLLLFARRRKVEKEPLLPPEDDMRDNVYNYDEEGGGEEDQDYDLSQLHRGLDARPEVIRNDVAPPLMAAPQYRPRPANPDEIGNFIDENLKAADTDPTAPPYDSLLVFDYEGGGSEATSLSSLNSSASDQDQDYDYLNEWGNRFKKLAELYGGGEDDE"},
  "source": "paper PMC12676446",
  "key": {"[1]": {"molecular_target": "connexin 50 (Cx50), endogenous in primary chick lens cells (chicken (endogenous in primary chick lens cells)) (UniProt P36381)", "assay": "co-IP; primary chick lens cell lysate (100 mM NaCl, 15 mM EGTA, 15 mM EDTA, 1% NP-40, pH 8.5); IP with anti-Cx50 or anti-β-catenin antibody overnight at 4°C, protein A/G plus agarose beads; cells without TGF-β2"}, "[2]": {"molecular_target": "connexin 50 (Cx50), endogenous in primary chick lens cells (chicken (endogenous in primary chick lens cells)) (UniProt P36381)", "assay": "co-IP; as a1, but primary chick lens cells treated with 10 ng/mL TGF-β2 before lysis"}},
  "note": "No constants are given. Whether binding was seen depends on the method and setting. In cells and extracts the contact can be indirect. Some results given as binding are weak or reduced against the parent protein; the word gives no strength.",
  "data": [
    {"substance": "E-cadherin, endogenous in primary chick lens cells (from UniProt P08641 161-887)", "values": [
      {"measurement": "binding", "setting": "[1]", "value": "binds"},
      {"measurement": "binding", "setting": "[2]", "value": "no binding (condition: cells treated with 10 ng/mL TGF-β2)"}
    ]}
  ]
}
